Measured values published in paper PMC5765009.
Results are given in words; binding and its absence hold for the method and conditions named. Binding seen in cells or lysates may run through a third protein. Here binding means that the protein was enriched with, or labelled near, the bait; the list need not be complete.

The chains behind the UniProt entries cited, without tags or fusion partners. Residues count along the entry.
UniProt P11021, residues 19-654: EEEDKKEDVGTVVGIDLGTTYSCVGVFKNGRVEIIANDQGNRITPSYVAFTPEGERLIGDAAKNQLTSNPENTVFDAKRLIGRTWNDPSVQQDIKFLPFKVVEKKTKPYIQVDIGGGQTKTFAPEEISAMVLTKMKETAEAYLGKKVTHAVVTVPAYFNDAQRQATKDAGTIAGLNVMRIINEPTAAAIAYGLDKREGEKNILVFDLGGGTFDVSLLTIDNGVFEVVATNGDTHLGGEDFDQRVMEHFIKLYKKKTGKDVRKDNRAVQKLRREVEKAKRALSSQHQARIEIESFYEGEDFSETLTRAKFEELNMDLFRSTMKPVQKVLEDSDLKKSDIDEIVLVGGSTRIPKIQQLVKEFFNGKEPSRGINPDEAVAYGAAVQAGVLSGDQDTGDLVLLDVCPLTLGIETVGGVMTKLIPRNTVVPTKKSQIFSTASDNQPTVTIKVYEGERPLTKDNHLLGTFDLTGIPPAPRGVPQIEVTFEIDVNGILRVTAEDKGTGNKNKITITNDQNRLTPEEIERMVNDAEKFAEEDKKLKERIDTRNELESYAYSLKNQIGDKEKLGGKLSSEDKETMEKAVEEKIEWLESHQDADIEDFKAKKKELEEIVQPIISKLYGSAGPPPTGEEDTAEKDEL
UniProt P28799, residues 18-593: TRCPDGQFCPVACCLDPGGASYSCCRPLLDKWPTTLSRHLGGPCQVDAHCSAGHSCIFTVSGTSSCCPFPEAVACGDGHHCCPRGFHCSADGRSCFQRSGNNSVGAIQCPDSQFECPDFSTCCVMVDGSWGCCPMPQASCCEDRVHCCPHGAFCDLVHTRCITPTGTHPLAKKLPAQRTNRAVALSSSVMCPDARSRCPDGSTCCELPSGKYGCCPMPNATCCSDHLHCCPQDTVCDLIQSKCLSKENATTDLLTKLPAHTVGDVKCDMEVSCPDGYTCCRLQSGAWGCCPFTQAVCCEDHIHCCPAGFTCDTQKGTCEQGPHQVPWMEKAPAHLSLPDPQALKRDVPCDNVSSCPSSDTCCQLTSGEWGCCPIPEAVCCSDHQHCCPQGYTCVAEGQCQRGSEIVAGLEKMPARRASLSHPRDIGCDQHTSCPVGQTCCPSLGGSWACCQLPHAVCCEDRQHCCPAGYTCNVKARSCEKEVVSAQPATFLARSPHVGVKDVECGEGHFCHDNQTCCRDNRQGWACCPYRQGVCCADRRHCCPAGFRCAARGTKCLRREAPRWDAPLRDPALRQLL
UniProt Q99873: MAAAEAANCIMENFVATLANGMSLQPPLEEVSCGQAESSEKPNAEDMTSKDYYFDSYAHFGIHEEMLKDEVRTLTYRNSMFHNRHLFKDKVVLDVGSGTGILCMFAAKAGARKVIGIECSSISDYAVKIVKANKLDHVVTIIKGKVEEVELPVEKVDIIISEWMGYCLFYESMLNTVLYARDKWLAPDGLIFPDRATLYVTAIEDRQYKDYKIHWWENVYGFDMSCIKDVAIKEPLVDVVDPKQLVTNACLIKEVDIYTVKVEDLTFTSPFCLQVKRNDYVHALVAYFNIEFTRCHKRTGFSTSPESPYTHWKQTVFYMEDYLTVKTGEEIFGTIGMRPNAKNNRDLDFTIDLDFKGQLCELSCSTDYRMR
UniProt P50990: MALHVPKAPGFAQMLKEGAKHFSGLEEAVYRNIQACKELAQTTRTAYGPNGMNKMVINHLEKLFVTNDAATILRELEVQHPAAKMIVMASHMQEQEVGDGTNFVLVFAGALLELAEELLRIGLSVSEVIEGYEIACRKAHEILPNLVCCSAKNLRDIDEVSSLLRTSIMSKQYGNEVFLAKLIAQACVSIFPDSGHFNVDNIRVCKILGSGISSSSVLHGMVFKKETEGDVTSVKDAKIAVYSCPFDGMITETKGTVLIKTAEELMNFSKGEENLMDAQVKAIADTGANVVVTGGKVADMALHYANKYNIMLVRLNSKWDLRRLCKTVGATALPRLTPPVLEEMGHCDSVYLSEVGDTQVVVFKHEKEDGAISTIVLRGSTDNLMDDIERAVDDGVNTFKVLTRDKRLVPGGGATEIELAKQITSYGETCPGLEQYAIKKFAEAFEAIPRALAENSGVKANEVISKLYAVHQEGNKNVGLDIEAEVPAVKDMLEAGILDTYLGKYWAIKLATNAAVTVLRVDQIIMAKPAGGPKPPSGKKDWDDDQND

The molecules below were run against Glucose regulated protein 78 (GRP78) (human (endogenous in OECM1, FaDu, BM2, NPC076)) (UniProt P11021) (assay: affinity purification with mass spectrometry; immunoprecipitates of PM fractions of OECM1 and FaDu cells with anti-GRP78 antibody against isotype control, 2% CHAPS; tryptic digests labelled with formaldehyde-D2 / formaldehyde, LC-MS/MS, Mascot with SwissProt 2010; candidates with D4/H4 ratio greater than 1.000).

Row | Molecule | binding
1 | Progranulin (from UniProt P28799 18-593) | binds
2 | PRMT1 (from UniProt Q99873 1-371) | binds
3 | TCP-1 theta (from UniProt P50990 1-548) | binds
4 | BLOC1S2 (protein, UniProt Q6QNY1 1-142) MAAAAEGVLATRSDEPARDDAAVETAEEAKEPAEADITELCRDMFSKMATYLTGELTATSEDYKLLENMNKLTSLKYLEMKDIAINISRNLKDLNQKYAGLQPYLDQINVIEEQVAALEQAAYKLDAYSKKLEAKYKKLEKR | binds
5 | Serpin H1 (protein, UniProt P50454 19-418) AEVKKPAAAAAPGTAEKLSPKAATLAERSAGLAFSLYQAMAKDQAVENILVSPVVVASSLGLVSLGGKATTASQAKAVLSAEQLRDEEVHAGLGELLRSLSNSTARNVTWKLGSRLYGPSSVSFADDFVRSSKQHYNCEHSKINFRDKRSALQSINEWAAQTTDGKLPEVTKDVERTDGALLVNAMFFKPHWDEKFHHKMVDNRGFMVTRSYTVGVMMMHRTGLYNYYDDEKEKLQIVEMPLAHKLSSLIILMPHHVEPLERLEKLLTKEQLKIWMGKMQKKAVAISLPKGVVEVTHDLQKHLAGLGLTEAIDKNKADLSRMSGKKDLYLASVFHATAFELDTDGNPFDQDIYGREELRSPKLFYADHPFIFLVRDTQSGSLLFIGRLVRPKGDKMRDEL | binds
6 | GRXCR2 (protein, UniProt A6NFK2 1-248) MEDPEKKLNQKSDGKPRKVRFKISSSYSGRVLKQVFEDGQELESPKEEYPHSFLQESLETMDGVYGSGEVPRPQMCSPKLTAQRISVFREGNAYTLAGGQPRFNDYKANDHKPLPIIDFGKIIIYTNNLKIIRTPMDKRDFVRKILQKEEEAEEESLMNKEESYGGRDQHDRPLVEAESTLPQNRYTQEGDIPEDSCFHCRGSGSATCSLCHGSKFSMLANRFKESYRALRCPACNENGLQPCQICNQ | binds
7 | BBS4 (protein, UniProt Q96RK4 1-519) MAEERVATRTQFPVSTESQKPRQKKAPEFPILEKQNWLIHLHYIRKDYEACKAVIKEQLQETQGLCEYAIYVQALIFRLEGNIQESLELFQTCAVLSPQSADNLKQVARSLFLLGKHKAAIEVYNEAAKLNQKDWEISHNLGVCYIYLKQFNKAQDQLHNALNLNRHDLTYIMLGKIHLLEGDLDKAIEVYKKAVEFSPENTELLTTLGLLYLQLGIYQKAFEHLGNALTYDPTNYKAILAAGSMMQTHGDFDVALTKYRVVACAVPESPPLWNNIGMCFFGKKKYVAAISCLKRANYLAPFDWKILYNLGLVHLTMQQYASAFHFLSAAINFQPKMGELYMLLAVALTNLEDIENAKRAYAEAVHLDKCNPLVNLNYAVLLYNQGEKKNALAQYQEMEKKVSLLKDNSSLEFDSEMVEMAQKLGAALQVGEALVWTKPVKDPKSKHQTTSTSKPASFQQPLGSNQALGQAMSSAAAYRTLPSGAGGTSQFTKPPSLPLEPEPAVESSPTETSEQIREK | binds
